Changes are numbered by the printed parent chain. No constants are given. Whether binding was seen depends on the method and setting. In cells and extracts the contact can be indirect. Some entries that bind do so weakly or less than the wild type. Sequences can lack the tags named with a protein.
Experiments:
Assay in all cases: co-IP; 12xMyc-Met30 variants immunoprecipitated on MYC-trap beads from 1 mg native yeast whole cell lysate (Triton X-100 buffer: 50 mM HEPES pH 7.5, 0.2% Triton X-100, 200 mM NaCl), overnight at 4 °C; co-precipitated Skp1 by western blot; cells untreated or treated with 100 µM CdCl2 (time courses); also H2O2 or zinc pre-treatment
[1] = target: T1, 12xMyc-Met30 C228S (S. cerevisiae) (UniProt P39014)
T1 sequence: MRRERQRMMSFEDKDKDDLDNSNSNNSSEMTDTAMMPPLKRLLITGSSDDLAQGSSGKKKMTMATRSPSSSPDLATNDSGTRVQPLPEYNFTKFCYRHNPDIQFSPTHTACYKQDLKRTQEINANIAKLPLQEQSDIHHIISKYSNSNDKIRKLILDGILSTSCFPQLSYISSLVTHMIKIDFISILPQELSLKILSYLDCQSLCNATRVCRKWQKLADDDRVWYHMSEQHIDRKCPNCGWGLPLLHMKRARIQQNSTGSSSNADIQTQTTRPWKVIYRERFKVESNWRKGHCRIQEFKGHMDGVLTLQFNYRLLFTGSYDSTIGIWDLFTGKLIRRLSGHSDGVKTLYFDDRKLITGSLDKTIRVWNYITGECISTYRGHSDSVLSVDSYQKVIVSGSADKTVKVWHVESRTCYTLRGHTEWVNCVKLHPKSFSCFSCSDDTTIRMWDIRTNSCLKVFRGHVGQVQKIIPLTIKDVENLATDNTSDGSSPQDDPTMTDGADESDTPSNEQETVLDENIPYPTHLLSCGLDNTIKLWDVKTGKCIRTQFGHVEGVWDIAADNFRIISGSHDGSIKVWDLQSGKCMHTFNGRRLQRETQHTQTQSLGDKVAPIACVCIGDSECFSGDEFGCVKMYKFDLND

By UniProt entry, the sequences of proteins in these tests, tags left out.
UniProt P52286: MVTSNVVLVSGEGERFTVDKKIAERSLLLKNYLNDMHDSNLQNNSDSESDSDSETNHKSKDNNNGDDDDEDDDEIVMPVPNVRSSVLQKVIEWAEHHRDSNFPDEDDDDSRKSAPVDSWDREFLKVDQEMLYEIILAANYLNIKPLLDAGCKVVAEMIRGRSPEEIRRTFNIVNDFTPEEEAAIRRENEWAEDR

[2] = target: T2, 12xMyc-Met30 C201S C205S C211S (S. cerevisiae) (UniProt P39014)
T2 sequence: T1 sequence with C201S, C205S, C211S, S228C

[3] = target: T3, 12xMyc-Met30 C205S (S. cerevisiae) (UniProt P39014)
T3 sequence: T1 sequence with C205S, S228C

binding [1]: binds | binding [2]: binds | binding [3]: binds
Substance: Skp1 (from UniProt P52286 1-194)

Source: article PMC11079001
